Test results as given in PMC8866510.
Results are given in words; binding and its absence hold for the method and conditions named.

Amino acid sequences for entries named in this document (tags omitted). Residues count along the entry.
UniProt Q2FZP8, residues 10-387: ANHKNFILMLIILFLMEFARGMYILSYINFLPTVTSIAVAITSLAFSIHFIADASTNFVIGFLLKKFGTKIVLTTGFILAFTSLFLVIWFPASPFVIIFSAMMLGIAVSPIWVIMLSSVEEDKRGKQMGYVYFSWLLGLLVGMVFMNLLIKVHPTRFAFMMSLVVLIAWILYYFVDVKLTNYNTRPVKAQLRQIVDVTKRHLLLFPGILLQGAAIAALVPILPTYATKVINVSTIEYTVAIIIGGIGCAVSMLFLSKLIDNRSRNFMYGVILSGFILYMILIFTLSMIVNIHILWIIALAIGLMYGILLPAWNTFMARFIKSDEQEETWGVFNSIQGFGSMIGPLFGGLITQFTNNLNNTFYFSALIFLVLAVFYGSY

Target: LtaA (S. aureus gentiobiosyl-diacylglycerol transporter), wild type (Staphylococcus aureus) (UniProt Q2FZP8)
Assay: mass photometry; LtaA in MSP1D1 nanodiscs (POPG:DAG 3:1), 100 nM, 50 mM Tris-HCl pH 8.0, 150 mM NaCl, around 25 °C, Refeyn OneMP; empty nanodiscs as reference; both purified

LtaA (S. aureus gentiobiosyl-diacylglycerol transporter), wild type (from UniProt Q2FZP8 10-387)
binding: no binding (tested: 100 nM)
